Our source for the binding values is article PMC6509835.

The chains behind the UniProt entries cited, without tags or fusion partners.
UniProt P49841: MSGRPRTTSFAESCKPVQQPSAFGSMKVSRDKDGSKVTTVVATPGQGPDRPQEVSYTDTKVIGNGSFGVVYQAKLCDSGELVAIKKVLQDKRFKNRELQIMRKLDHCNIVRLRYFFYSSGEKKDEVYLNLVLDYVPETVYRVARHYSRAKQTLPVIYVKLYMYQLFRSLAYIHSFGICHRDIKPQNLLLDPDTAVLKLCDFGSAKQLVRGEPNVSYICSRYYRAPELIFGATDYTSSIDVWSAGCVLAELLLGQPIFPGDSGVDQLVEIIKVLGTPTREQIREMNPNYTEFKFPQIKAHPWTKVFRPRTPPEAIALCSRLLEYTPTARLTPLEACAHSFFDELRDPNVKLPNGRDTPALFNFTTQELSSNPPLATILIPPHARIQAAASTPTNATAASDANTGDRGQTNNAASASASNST
UniProt Q07812: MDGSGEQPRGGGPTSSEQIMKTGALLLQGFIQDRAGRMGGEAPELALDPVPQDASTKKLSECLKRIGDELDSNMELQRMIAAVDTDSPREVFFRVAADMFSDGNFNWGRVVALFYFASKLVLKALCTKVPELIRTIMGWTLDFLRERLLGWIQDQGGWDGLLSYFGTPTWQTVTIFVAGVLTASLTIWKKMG

Test [1] addresses Glycogen synthase kinase-3β (human (endogenous in human colon cancer cells)) (UniProt P49841). The test can be described thus: co-IP; endogenous proteins; GSK-3β or Bax antibody added to cell lysates, 2 h at ambient temperature, captured on protein A-agarose, Western blotting for GSK-3β or Bax; cells with or without 2 μg/ml SC66 treatment. (In western blotting, separated proteins are transferred to a membrane and probed.)

Test [2] addresses Bcl-2-associated X protein (human (endogenous in human colon cancer cells)) (UniProt Q07812). The test is described as above.

These are yes or no findings as the source states them, for the method shown. Binding seen in cells or lysates may run through a third protein. Some results given as binding are weak or reduced against the parent protein; the word gives no strength.

“Bcl-2-associated X protein (from UniProt Q07812 1-192)”: the binding entry in test [1] was “binds”. “Glycogen synthase kinase-3β (from UniProt P49841 1-420)”: the binding result in test [2] was “binds”.
